“And” between values parts separate entries of the source, which are not always exact repeats. Equal values may be shown once. Read-outs that look alike come from different tables or passages of the source.
How the values were obtained:
RPTC = details: 30 nM, 24 h, relative to DMSO controls
[1] = test system: PGC-1α, ATP6, ND1, ND6, NDUFB8 mRNA in kidney cortex
[2] = test system: PGC-1α, ATP6, ND1, ND6, NDUFB8 mRNA in heart
[3] = test system: adult feline cardiomyocytes (AFC); assay type: cell-based; details: 24 hr, formoterol 10 and 30 nM
[4] = test system: PGC-1α in skeletal muscle; details: 24 h after injection of 100 μg/kg; cited from earlier work
[5] = 72 hr, repeated daily 100 μg/kg i.p.
[6] = 72 hr, repeated daily 100 μg/kg

COc1ccc(C[C@@H](C)NC[C@H](O)c2ccc(O)c(NC=O)c2)cc1 (racemic) [formoterol, rac-(R,R)—N-[2-hydroxy-5-[1-hydroxy-2-[1-(4-methoxyphenyl)propan-2-ylamino]ethyl]phenyl]formamide]
Increase in mitochondrial (mtDNA) copy number (RPTC): 2.5 fold | ATP6 mRNA induction, kidney ([1]; 24 hr after 100 μg/kg i.p.): 2.5 fold | ND1 mRNA induction, kidney ([1]; 24 hr after 100 μg/kg i.p.): 3.5 fold | ND6 mRNA induction, kidney ([1]; 24 hr after 100 μg/kg i.p.): 2.5 fold | NDUFB8 mRNA induction, kidney ([1]; 24 hr after 100 μg/kg i.p.): 2 fold | PGC-1α mRNA induction, kidney ([1]; 24 hr after 100 μg/kg i.p.): 2.5 fold | ND1 mRNA induction, kidney [1, 5]: 2 fold | NDUFB8 mRNA induction, kidney [1, 5]: 2 fold | PGC-1α mRNA induction, kidney [1, 5]: 1.5 fold and 1.75 fold | ATP6 mRNA induction, heart ([2]; 24 hr, 100 μg/kg): 1.5 fold | ND1 mRNA induction, heart ([2]; 24 hr, 100 μg/kg): 2 fold | ND6 mRNA induction, heart ([2]; 24 hr, 100 μg/kg): 2 fold | NDUFB8 mRNA induction, heart ([2]; 24 hr, 100 μg/kg): 2 fold | PGC-1α mRNA induction, heart ([2]; 24 hr, 100 μg/kg): 3 fold | ND1 mRNA induction, heart [2, 6]: 4 fold | NDUFB8 mRNA induction, heart [2, 6]: 2 fold | PGC-1α mRNA induction, heart [2, 6]: 2 fold | Change in FCCP-uncoupled OCR [3]: increased | PGC-1α in skeletal muscle [4]: increased
